PubChem BioAssay AID743454, Peter MacCallum Cancer Centre – 2014
Here is one part, drawn at random, of about 18,000 deposited reagents. Over the whole deposit, 450 (2.5%) are marked active. 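Single biological run; no consistent viability z cut-off exists, so the class columns, not z-scores, define the calls.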

Purpose: 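Genes whose loss kills vorinostat-resistant colon cancer cells under vorinostat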 (primary screen)
Cells: human HCT116-VR colon cancer cells, selected for vorinostat resistance
Reagents: siRNA pool against human genes, 40 nM siRNA pool
Timing: vorinostat for 24 h, read-out about 72 h after transfection
Conditions: vorinostat at 2.5 µM final
Measured: 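Two measures, CellTiter-Fluor viability and luminescent caspase 3/7 activity, each as fold change against same-plate mock wells, mean of duplicates, then screen-wide robust z-score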
Reading the numbers: viability robust z-score: higher = more viable cells than screen typical; caspase robust z-score: higher = more caspase 3/7 activity than screen typical
Hit rule: 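a knock-down is a hit when classed RV1 or RV2 for lowered viability, or CA1 or CA2 for caspase activation; those lethal without drug were dropped; hits were retested singly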

gene	viability hit class	caspase hit class	viability robust z-score	caspase robust z-score	Outcome
GSTA3	no change	no change	1.77	0.51	inactive
SLC66A1	no change	no change	-0.85	-0.02	inactive
VAV2	no change	no change	0.61	-0.02	inactive
CDC42EP2	no change	no change	-0.04	-0.46	inactive
ACAP2	no change	no change	1.52	-0.13	inactive
TSGA10IP	no change	no change	-0.92	0.64	inactive
GMIP	no change	no change	-0.86	3	inactive
MYL11	no change	no change	-2.21	1.86	inactive
CYB5D2	no change	no change	0.7	-0.48	inactive
MFNG	no change	no change	-4.96	1.79	inactive
GJD2	no change	no change	-0.4	2.92	inactive
PKIA	no change	no change	-0.85	-1.04	inactive
SLC35D1	no change	no change	0.95	-0.9	inactive
DLG5	no change	no change	-0.88	4.15	inactive
TMEM161B	no change	no change	-0.45	-1.11	inactive

The list goes on; the last 2 above are carried over.
gene	viability hit class	caspase hit class	viability robust z-score	caspase robust z-score	Outcome
DLG5	no change	no change	-0.88	4.15	inactive
TMEM161B	no change	no change	-0.45	-1.11	inactive
ACAN	no change	no change	-0.7	1.27	inactive
GEN1	no change	no change	-0.19	-0.64	inactive
KLK10	no change	no change	0.11	1.14	inactive
TMEM35A	no change	no change	0.43	0.37	inactive
RELB	no change	no change	1.02	3.5	inactive
DDX49	no change	no change	-1.56	1.49	inactive
ATP1B3	no change	no change	-0.9	3.52	inactive
PLA2R1	no change	no change	-1.51	0.46	inactive
